This is an account of results in patent US20020098516A1.

This experiment deals with T1, usherin protein (mouse, native, from tissue extracts) (mouse) (UniProt Q2QI47).
T1 sequence (looked up): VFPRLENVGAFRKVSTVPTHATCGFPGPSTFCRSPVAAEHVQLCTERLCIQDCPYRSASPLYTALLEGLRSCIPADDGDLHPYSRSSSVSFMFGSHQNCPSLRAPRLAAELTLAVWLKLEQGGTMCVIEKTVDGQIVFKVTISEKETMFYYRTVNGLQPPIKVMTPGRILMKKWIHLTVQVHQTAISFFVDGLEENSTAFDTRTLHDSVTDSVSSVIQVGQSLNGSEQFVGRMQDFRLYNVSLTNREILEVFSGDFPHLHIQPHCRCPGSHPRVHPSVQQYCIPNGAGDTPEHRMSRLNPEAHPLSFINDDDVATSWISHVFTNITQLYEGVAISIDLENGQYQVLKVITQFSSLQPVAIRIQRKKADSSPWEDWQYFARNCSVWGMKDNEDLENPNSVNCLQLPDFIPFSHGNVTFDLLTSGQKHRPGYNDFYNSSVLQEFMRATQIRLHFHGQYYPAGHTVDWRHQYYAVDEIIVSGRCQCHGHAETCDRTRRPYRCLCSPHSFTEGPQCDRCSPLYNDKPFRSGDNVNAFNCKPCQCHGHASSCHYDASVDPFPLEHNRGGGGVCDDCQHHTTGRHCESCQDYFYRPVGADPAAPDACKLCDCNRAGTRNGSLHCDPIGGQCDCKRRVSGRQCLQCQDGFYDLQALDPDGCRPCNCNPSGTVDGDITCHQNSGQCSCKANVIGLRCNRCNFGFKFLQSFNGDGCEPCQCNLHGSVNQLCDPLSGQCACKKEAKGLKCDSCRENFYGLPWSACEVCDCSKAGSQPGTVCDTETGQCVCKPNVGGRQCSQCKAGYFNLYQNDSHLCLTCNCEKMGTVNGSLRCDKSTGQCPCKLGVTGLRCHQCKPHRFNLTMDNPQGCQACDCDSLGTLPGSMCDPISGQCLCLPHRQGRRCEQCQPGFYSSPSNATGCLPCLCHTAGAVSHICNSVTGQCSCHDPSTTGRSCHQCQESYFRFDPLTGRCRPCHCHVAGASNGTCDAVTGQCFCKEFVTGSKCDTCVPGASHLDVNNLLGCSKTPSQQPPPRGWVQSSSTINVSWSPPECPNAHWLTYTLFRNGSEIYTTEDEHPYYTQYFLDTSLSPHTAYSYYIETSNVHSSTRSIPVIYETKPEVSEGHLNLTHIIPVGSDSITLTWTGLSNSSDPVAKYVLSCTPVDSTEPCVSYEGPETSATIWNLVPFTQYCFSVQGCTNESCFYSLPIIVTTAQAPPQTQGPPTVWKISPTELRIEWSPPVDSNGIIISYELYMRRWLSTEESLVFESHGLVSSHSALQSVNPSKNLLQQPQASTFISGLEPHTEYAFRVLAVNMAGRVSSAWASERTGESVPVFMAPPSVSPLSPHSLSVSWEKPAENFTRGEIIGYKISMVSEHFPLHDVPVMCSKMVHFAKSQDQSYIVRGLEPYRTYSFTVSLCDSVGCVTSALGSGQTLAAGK
As to the kind of experiment: fusion peptide mixed with retinal extract, anti-GST immunoprecipitation, western blot with usherin-specific antibodies.

No constants are given. Whether binding was seen depends on the method and setting.

On to “fusion peptide comprising the LE domain of usherin (GST fusion) (murine)”, for which the binding entry is reported as “no binding”.
With “fusion peptide comprising the fibronectin type III domain of usherin (GST fusion) (murine)” the entry was “no binding”.
